Data on two substances can be found in PMC6965108.

Sequences of proteins named here, by UniProt entry; tags and fusion partners are left off.
UniProt Q9UKV5: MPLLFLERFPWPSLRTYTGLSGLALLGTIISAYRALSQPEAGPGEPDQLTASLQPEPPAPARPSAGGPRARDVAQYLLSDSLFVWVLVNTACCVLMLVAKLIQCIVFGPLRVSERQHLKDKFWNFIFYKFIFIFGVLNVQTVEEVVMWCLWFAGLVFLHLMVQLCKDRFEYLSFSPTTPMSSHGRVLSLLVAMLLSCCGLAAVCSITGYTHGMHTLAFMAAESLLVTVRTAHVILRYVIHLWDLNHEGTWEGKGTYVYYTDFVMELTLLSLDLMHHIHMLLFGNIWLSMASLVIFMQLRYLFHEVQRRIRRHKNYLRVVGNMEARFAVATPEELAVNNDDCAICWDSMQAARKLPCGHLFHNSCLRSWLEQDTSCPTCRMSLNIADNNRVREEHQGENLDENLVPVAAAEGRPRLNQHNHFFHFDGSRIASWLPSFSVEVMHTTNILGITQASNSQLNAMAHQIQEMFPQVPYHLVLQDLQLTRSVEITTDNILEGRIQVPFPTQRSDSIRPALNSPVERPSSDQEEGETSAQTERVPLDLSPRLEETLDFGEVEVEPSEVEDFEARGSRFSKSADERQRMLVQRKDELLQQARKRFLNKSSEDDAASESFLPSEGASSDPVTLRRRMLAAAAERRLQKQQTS

This assay deals with T1, FLAG-tagged KDELR3 (KDELR3-001, transcript variant 1) (human) (UniProt O43731).
T1 sequence: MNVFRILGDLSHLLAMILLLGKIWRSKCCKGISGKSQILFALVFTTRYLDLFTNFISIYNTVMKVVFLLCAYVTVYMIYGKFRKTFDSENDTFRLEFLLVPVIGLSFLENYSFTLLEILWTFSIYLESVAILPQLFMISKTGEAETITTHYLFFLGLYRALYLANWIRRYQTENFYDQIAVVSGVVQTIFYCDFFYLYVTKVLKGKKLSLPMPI
As to the kind of experiment: co-IP; stably transduced 1205Lu cells lysed in 1% Triton X-100 buffer (50 mM Tris pH 7.5, 150 mM NaCl, 10 mM iodoacetamide, 50 µM MG132); 2 mg lysate immunoprecipitated with anti-gp78 or anti-DDK antibody on Dynabeads Protein A, overnight at 4 °C; immunoblot with anti-DDK or anti-gp78 (Ab2).

These are yes or no findings as the source states them, for the method shown. Binding seen in cells or lysates may run through a third protein. Some results given as binding are weak or reduced against the parent protein; the word gives no strength. Tags and fused reporters may be left off the sequences shown.

For “gp78 / autocrine motility factor receptor (AMFR), endogenous (from UniProt Q9UKV5 1-643) (enzyme)”, the binding entry is on record as “binds”.

“mCherry-tagged gp78 (from UniProt Q9UKV5 1-643) (enzyme)”: the binding result is reported as “binds”.
